Test results published in publication PMC4974456.
No constants are given. Whether binding was seen depends on the method and setting. In cells and extracts the contact can be indirect. Some binding calls cover weakened binding; strength is not graded here. For some assays here: Where a sequence is shown, tags or fusion partners need not be part of it. Values belong to the molecule of their own block, whether it stands above or below them.

Sequences of proteins named here, by UniProt entry; tags and fusion partners are left off.
UniProt P28033: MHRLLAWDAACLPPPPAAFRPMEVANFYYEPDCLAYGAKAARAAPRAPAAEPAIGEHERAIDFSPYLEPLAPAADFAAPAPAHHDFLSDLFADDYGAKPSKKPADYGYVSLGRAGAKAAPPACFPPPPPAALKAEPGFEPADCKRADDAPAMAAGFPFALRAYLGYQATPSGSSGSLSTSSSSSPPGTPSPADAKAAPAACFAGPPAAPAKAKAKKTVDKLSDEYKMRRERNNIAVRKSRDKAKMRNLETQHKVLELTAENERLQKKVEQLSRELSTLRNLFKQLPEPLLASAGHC

Columns and labels:
[1] = target: T1, CRTC3, endogenous in mouse adipocytes and adipose tissue (mouse (endogenous in BAT SVF cells, 3T3-L1 cells and adipose tissues)) (UniProt Q91X84); experiment: co-IP; endogenous proteins; lysates of differentiated BAT SVF cells (methods: BAT cell line), differentiated 3T3-L1 cells and adipose tissue (BAT); IP with 2 ug antibody overnight at 4 °C, protein A/G agarose; western blot
T1 sequence: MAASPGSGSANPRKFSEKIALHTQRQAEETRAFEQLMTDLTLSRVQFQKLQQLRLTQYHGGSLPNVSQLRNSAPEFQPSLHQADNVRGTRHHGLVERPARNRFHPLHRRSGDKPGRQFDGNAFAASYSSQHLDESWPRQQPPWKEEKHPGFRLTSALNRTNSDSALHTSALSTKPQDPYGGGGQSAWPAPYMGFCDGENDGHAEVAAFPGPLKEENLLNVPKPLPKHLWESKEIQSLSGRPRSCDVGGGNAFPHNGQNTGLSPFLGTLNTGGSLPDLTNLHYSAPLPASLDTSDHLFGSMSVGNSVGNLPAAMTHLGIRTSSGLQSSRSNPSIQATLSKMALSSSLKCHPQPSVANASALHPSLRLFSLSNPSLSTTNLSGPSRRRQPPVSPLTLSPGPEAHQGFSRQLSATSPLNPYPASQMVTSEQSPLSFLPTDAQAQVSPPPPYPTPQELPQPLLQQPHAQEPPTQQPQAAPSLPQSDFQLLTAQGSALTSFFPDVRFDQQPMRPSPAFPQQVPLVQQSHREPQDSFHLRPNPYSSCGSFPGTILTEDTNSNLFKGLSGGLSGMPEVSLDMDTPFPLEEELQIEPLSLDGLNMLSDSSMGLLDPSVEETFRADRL

[2] = target: T2, Flag-CRTC3 (from pcDNA-Flag-CRTC3) (UniProt Q91X84); experiment: co-IP; 293T cells co-transfected with pcDNA-Flag-CRTC3 and pcDNA-C/EBPβ, harvested after 36 h; IP with CRTC3, C/EBPβ or Flag antibody overnight at 4 °C, protein A/G agarose; blotted with CRTC3 and C/EBPβ antibodies
T2 sequence: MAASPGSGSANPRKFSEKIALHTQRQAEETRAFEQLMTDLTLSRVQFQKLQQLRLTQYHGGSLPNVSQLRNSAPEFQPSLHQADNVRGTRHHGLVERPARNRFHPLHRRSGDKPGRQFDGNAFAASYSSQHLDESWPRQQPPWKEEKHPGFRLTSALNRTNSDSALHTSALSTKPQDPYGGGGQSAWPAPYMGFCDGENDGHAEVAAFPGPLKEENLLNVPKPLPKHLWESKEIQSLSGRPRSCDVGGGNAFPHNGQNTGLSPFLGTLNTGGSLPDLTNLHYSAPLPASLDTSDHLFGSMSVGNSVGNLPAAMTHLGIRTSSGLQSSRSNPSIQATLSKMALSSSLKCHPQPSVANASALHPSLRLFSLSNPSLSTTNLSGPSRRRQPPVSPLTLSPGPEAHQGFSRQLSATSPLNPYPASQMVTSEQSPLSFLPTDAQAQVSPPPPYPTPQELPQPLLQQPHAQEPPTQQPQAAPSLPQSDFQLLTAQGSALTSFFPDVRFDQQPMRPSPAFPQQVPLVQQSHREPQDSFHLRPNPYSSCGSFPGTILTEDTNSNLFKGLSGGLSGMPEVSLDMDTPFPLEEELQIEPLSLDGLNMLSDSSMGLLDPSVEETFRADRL

[3] = target: C/EBPβ (from pcDNA-C/EBPβ) (UniProt P28033); experiment: as above
[4] = target: T3, Lkb1 in 293T cell lysate (UniProt Q15831); experiment: co-IP; 293T cells transfected with pcDNA-Flag-CRTC3, harvested after 36 h; lysate (500 ug total protein) precleared with protein A/G agarose; IP with 2 ug Flag, Lkb1 or CRTC3 antibody overnight at 4 °C; washed with cold PBS; blotted with Lkb1 and CRTC3 antibodies
T3 sequence: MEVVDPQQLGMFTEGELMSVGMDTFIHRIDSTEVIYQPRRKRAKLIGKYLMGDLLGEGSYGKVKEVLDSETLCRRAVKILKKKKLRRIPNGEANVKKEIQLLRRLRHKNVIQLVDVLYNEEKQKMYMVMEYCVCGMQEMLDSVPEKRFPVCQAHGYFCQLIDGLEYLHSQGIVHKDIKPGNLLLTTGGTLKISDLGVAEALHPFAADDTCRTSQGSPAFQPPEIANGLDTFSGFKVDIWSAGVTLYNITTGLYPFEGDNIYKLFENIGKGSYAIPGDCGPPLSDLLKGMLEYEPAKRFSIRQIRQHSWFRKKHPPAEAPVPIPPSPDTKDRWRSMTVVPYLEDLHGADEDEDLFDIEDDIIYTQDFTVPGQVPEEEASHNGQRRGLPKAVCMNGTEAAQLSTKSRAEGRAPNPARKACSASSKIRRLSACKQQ

[5] = target: T4, Lkb1, endogenous in mouse adipocytes and adipose tissue (mouse (endogenous in BAT SVF cells, 3T3-L1 cells and adipose tissues)) (UniProt Q9WTK7); experiment: co-IP; endogenous proteins; lysates of differentiated BAT SVF cells (methods: BAT cell line), differentiated 3T3-L1 cells and adipose tissue (BAT); IP with 2 ug antibody overnight at 4 °C, protein A/G agarose; western blot
T4 sequence: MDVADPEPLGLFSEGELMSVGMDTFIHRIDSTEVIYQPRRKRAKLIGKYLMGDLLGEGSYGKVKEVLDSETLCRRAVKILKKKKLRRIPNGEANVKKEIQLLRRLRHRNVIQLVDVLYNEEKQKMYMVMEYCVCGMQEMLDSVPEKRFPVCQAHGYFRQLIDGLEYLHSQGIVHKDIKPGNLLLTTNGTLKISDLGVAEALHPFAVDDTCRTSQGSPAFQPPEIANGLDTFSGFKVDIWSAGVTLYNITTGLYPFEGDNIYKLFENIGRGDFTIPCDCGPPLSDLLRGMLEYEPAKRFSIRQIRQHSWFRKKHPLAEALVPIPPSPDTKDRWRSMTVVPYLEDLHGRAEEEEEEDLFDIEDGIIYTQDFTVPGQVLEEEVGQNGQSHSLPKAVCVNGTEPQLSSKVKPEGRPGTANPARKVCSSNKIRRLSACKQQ

binding [2]: binds
Molecule: C/EBPβ (from pcDNA-C/EBPβ) (from UniProt P28033 1-296)

binding [3]: binds
binding [4]: binds
B1: Flag-CRTC3 (from pcDNA-Flag-CRTC3) (protein, UniProt Q91X84 1-619)
chain: MAASPGSGSANPRKFSEKIALHTQRQAEETRAFEQLMTDLTLSRVQFQKLQQLRLTQYHGGSLPNVSQLRNSAPEFQPSLHQADNVRGTRHHGLVERPARNRFHPLHRRSGDKPGRQFDGNAFAASYSSQHLDESWPRQQPPWKEEKHPGFRLTSALNRTNSDSALHTSALSTKPQDPYGGGGQSAWPAPYMGFCDGENDGHAEVAAFPGPLKEENLLNVPKPLPKHLWESKEIQSLSGRPRSCDVGGGNAFPHNGQNTGLSPFLGTLNTGGSLPDLTNLHYSAPLPASLDTSDHLFGSMSVGNSVGNLPAAMTHLGIRTSSGLQSSRSNPSIQATLSKMALSSSLKCHPQPSVANASALHPSLRLFSLSNPSLSTTNLSGPSRRRQPPVSPLTLSPGPEAHQGFSRQLSATSPLNPYPASQMVTSEQSPLSFLPTDAQAQVSPPPPYPTPQELPQPLLQQPHAQEPPTQQPQAAPSLPQSDFQLLTAQGSALTSFFPDVRFDQQPMRPSPAFPQQVPLVQQSHREPQDSFHLRPNPYSSCGSFPGTILTEDTNSNLFKGLSGGLSGMPEVSLDMDTPFPLEEELQIEPLSLDGLNMLSDSSMGLLDPSVEETFRADRL

The remaining lines, values behind:

Molecule: C/EBPβ, endogenous in mouse adipocytes and BAT (from UniProt P28033 1-296)
binding [1]: binds

B2: CRTC3, endogenous in mouse adipocytes and adipose tissue (protein, UniProt Q91X84 1-619)
chain: MAASPGSGSANPRKFSEKIALHTQRQAEETRAFEQLMTDLTLSRVQFQKLQQLRLTQYHGGSLPNVSQLRNSAPEFQPSLHQADNVRGTRHHGLVERPARNRFHPLHRRSGDKPGRQFDGNAFAASYSSQHLDESWPRQQPPWKEEKHPGFRLTSALNRTNSDSALHTSALSTKPQDPYGGGGQSAWPAPYMGFCDGENDGHAEVAAFPGPLKEENLLNVPKPLPKHLWESKEIQSLSGRPRSCDVGGGNAFPHNGQNTGLSPFLGTLNTGGSLPDLTNLHYSAPLPASLDTSDHLFGSMSVGNSVGNLPAAMTHLGIRTSSGLQSSRSNPSIQATLSKMALSSSLKCHPQPSVANASALHPSLRLFSLSNPSLSTTNLSGPSRRRQPPVSPLTLSPGPEAHQGFSRQLSATSPLNPYPASQMVTSEQSPLSFLPTDAQAQVSPPPPYPTPQELPQPLLQQPHAQEPPTQQPQAAPSLPQSDFQLLTAQGSALTSFFPDVRFDQQPMRPSPAFPQQVPLVQQSHREPQDSFHLRPNPYSSCGSFPGTILTEDTNSNLFKGLSGGLSGMPEVSLDMDTPFPLEEELQIEPLSLDGLNMLSDSSMGLLDPSVEETFRADRL
binding [5]: binds
